In article doi:10.1101/2025.05.14.654103 one finds binding data, which are given here for five molecules.

By UniProt entry, the sequences of proteins in these tests, tags left out.
UniProt Q14653: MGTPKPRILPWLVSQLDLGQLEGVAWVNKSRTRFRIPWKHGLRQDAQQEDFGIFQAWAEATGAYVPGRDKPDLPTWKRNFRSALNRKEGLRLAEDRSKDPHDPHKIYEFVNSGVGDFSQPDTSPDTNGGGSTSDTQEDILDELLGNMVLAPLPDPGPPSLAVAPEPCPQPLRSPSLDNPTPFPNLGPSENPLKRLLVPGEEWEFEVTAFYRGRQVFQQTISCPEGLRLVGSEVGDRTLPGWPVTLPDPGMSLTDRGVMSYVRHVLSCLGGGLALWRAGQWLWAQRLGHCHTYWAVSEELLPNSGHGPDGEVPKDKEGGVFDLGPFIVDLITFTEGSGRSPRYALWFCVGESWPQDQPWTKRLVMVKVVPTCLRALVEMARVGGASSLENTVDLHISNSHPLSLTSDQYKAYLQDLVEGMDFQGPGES
UniProt P51114: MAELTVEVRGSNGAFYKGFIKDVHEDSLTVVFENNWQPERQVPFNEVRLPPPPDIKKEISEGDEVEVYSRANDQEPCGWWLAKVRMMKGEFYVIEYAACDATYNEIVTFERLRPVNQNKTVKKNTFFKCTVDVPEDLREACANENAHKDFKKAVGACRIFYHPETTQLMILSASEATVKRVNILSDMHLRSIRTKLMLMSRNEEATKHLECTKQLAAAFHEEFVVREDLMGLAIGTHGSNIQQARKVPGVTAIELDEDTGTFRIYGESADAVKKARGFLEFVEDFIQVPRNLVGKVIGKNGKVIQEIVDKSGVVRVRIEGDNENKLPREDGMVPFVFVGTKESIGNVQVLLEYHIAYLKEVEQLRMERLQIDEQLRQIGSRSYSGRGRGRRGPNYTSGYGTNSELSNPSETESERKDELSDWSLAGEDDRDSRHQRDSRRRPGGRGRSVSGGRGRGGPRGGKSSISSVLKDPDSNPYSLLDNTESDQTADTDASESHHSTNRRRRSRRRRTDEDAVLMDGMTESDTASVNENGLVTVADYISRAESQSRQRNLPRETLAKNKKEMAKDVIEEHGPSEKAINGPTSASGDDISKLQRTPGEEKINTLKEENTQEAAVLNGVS
UniProt P28340: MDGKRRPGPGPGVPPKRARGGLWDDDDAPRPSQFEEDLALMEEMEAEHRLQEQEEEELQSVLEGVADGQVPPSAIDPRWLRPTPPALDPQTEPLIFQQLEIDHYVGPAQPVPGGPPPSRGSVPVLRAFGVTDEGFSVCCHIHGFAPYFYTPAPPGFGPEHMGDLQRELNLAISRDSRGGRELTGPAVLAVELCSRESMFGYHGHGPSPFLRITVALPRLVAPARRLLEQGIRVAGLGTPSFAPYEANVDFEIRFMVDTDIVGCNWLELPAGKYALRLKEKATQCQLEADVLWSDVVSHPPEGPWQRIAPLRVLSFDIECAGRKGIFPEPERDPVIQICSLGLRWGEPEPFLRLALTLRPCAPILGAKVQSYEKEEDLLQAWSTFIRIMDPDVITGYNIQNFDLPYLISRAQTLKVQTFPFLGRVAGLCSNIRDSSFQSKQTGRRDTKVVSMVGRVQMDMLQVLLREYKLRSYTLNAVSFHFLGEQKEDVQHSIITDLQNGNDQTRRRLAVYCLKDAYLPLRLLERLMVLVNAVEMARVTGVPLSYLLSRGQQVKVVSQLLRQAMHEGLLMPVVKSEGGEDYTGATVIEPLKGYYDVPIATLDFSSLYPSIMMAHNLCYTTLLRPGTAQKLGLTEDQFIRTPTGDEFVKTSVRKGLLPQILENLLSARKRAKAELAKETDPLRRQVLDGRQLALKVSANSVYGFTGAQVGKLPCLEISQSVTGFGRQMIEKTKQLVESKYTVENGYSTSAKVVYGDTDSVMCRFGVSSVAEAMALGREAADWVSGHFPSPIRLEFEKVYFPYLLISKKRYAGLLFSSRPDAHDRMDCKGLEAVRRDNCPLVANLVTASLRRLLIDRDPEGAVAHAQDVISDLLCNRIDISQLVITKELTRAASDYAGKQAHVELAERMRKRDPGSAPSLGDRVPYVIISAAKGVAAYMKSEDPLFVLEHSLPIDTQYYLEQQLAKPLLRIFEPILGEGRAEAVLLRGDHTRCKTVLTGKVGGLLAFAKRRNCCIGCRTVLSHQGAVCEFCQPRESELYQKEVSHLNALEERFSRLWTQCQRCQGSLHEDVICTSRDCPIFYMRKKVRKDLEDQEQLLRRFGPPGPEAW
UniProt Q15717: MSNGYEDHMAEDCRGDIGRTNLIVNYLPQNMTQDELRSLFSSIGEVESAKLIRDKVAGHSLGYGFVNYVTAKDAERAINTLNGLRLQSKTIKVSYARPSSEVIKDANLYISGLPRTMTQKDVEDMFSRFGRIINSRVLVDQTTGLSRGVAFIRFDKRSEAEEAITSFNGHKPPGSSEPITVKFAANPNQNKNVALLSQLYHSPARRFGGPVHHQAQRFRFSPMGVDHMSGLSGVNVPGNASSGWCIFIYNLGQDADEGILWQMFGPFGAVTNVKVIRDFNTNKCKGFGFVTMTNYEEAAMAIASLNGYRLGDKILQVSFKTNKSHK

For this assay, the target named is interferon regulatory factor 3 (human (endogenous in LX2)) (UniProt Q14653). Kind of assay: affinity purification with mass spectrometry.

No constants are given. Whether binding was seen depends on the method and setting. Binding seen in cells or lysates may run through a third protein. A yes stands for co-enrichment or nearness to the bait. Other partners may have been found.

“Fragile X-related protein 1 (from UniProt P51114 1-621)”: the binding result is on record as “binds”.

In the case of “DNA polymerase delta catalytic subunit (from UniProt P28340 1-1107)”, the binding result is on record as “binds”.

On to “ELAV like RNA binding protein 1 (from UniProt Q15717 1-326)”, for which the binding entry was “binds”.

B1: eukaryotic translation initiation factor 2A (protein, UniProt Q9BY44 1-585)
chain: MAPSTPLLTVRGSEGLYMVNGPPHFTESTVFPRESGKNCKVCIFSKDGTLFAWGNGEKVNIISVTNKGLLHSFDLLKAVCLEFSPKNTVLATWQPYTTSKDGTAGIPNLQLYDVKTGTCLKSFIQKKMQNWCPSWSEDETLCARNVNNEVHFFENNNFNTIANKLHLQKINDFVLSPGPQPYKVAVYVPGSKGAPSFVRLYQYPNFAGPHAALANKSFFKADKVTMLWNKKATAVLVIASTDVDKTGASYYGEQTLHYIATNGESAVVQLPKNGPIYDVVWNSSSTEFCAVYGFMPAKATIFNLKCDPVFDFGTGPRNAAYYSPHGHILVLAGFGNLRGQMEVWDVKNYKLISKPVASDSTYFAWCPDGEHILTATCAPRLRVNNGYKIWHYTGSILHKYDVPSNAELWQVSWQPFLDGIFPAKTITYQAVPSEVPNEEPKVATAYRPPALRNKPITNSKLHEEEPPQNMKPQSGNDKPLSKTALKNQRKHEAKKAAKQEARSDKSPDLAPTPAPQSTPRNTVSQSISGDPEIDKKIKNLKKKLKAIEQLKEQAATGKQLEKNQLEKIQKETALLQELEDLELGI
Consider B1, for which the binding entry is “binds”.

B2: G3BP2 (protein, UniProt Q9UN86 1-482)
chain: MVMEKPSPLLVGREFVRQYYTLLNKAPEYLHRFYGRNSSYVHGGVDASGKPQEAVYGQNDIHHKVLSLNFSECHTKIRHVDAHATLSDGVVVQVMGLLSNSGQPERKFMQTFVLAPEGSVPNKFYVHNDMFRYEDEVFGDSEPELDEESEDEVEEEQEERQPSPEPVQENANSGYYEAHPVTNGIEEPLEESSHEPEPEPESETKTEELKPQVEEKNLEELEEKSTTPPPAEPVSLPQEPPKAFSWASVTSKNLPPSGTVSSSGIPPHVKAPVSQPRVEAKPEVQSQPPRVREQRPRERPGFPPRGPRPGRGDMEQNDSDNRRIIRYPDSHQLFVGNLPHDIDENELKEFFMSFGNVVELRINTKGVGGKLPNFGFVVFDDSEPVQRILIAKPIMFRGEVRLNVEEKKTRAARERETRGGGDDRRDIRRNDRGPGGPRGIVGGGMMRDRDGRGPPPRGGMAQKLGSGRGTGQMEGRFTGQRR
With B2, the binding result is listed as “binds”.
